Not every detail of the peptide structures is certain; ends, links or a residue may be inferred.
Tested on: diabetic Lewis rats
Test: Blood glucose lowering in streptozotocin-diabetic male Lewis rats after subcutaneous injection
Assay type: in vivo, rat

CC[C@H](C)[C@@H]1NC(=O)CNC(=O)[C@H](CCCNC(=N)N)NC(=O)[C@H](CCCNC(=N)N)NC(=O)[C@@H]2CCCN2C(=O)CNC(=O)CNC(=O)CNC(=O)[C@H]([C@@H](C)O)NC(=O)[C@@H]2CCCN2C(=O)[C@H](CC(=O)O)NC(=O)[C@H]([C@@H](C)O)NC(=O)[C@H](Cc2ccc(O)cc2)NC(=O)[C@H](Cc2ccccc2)NC(=O)[C@H](Cc2ccccc2)NC(=O)CNC(=O)[C@H](CCCNC(=N)N)NC(=O)[C@H](CCC(=O)O)NC(=O)CNC(=O)[C@@H]2CSSC[C@@H](C(=O)N[C@@H](CC(N)=O)C(=O)O)NC(=O)[C@H](Cc3ccc(O)cc3)NC(=O)[C@H](CC(N)=O)NC(=O)[C@H](CCC(=O)O)NC(=O)[C@H](CC(C)C)NC(=O)[C@H](CCC(N)=O)NC(=O)[C@H](Cc3ccc(O)cc3)NC(=O)[C@H](CC(C)C)NC(=O)[C@H](CO)NC(=O)[C@@H]3CSSC[C@H](NC(=O)[C@H](CCC(N)=O)NC(=O)[C@H](CCC(=O)O)NC(=O)[C@H](C(C)C)NC1=O)C(=O)N[C@@H](CSSC[C@H](NC(=O)[C@H](CC(C)C)NC(=O)[C@H](Cc1c[nH]cn1)NC(=O)[C@H](CCC(N)=O)NC(=O)[C@H](CC(N)=O)NC(=O)[C@@H](NC(=O)[C@@H](N)Cc1ccccc1)C(C)C)C(=O)NCC(=O)N[C@@H](CO)C(=O)N[C@@H](Cc1c[nH]cn1)C(=O)N[C@@H](CC(C)C)C(=O)N[C@@H](C(C)C)C(=O)N[C@@H](CCC(=O)O)C(=O)N[C@@H](C)C(=O)N[C@@H](CC(C)C)C(=O)N[C@@H](Cc1ccc(O)cc1)C(=O)N[C@@H](CC(C)C)C(=O)N[C@@H](C(C)C)C(=O)N2)C(=O)N[C@@H](Cc1c[nH]cn1)C(=O)N[C@@H](CO)C(=O)N[C@@H]([C@@H](C)CC)C(=O)N3 [[His^A8, Asp^B28, Pro^B29]-SCI]
mean change in blood glucose (0.5 U/kg (submaximal dose; SCI at same dose in moles of protein), subcutaneous, diabetic Lewis rats): −31.4 mg/dL per hour | molar concentration required for same rate and extent of blood glucose lowering as wild-type insulin (submaximal concentrations of insulin): three-fold higher | mean change (drop) in blood glucose (weight equivalent of 1.5 U/kg, subcutaneous, diabetic Lewis rats): −98.7 mg/dL per hour
